Assay results as given in paper PMC4561423.
No constants are given. Whether binding was seen depends on the method and setting. In cells and extracts the contact can be indirect. Binding calls can cover weak binding; strength is not graded here.

Protein sequences, listed by entry. Tags and fused reporters are not part of them. Lines headed by an entry give the natural chain unless they say otherwise; changes in a name come on top.
UniProt P70452: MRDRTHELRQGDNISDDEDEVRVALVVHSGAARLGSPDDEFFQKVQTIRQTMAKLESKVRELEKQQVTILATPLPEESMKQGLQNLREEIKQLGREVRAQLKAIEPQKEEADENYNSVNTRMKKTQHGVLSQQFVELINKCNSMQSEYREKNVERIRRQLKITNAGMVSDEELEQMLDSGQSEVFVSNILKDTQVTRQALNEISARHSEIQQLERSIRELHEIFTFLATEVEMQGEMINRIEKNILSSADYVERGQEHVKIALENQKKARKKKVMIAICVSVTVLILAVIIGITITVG

Target: GFP-S-tagged Stx4Δ33-153 (Syntaxin domain deletion) (mouse) (UniProt P70452)
Assay: pull-down; 293T cells co-transfected with Cdo and GFP-S-tagged Stx4 (full length or deletion mutants); cell extracts incubated with anti-S (S-agarose) beads; blot with Cdo or GFP antibodies

- binding: binds
B1: Cdo (cell adhesion molecule-related, down-regulated by oncogenes), full length, expressed in 293T cells (receptor, UniProt O35158 25-1256)
chain: DLATYFISEPLSAVQKLGRPVVLHCSAKPVTARISWLHNGKRLDRNTEQIKIHRGTLTILSLNPSLSGCYQCVANNSVGAVVSGPATVSADALADFDSSTMHVITAEKKNTGFIGCRVPESNPKAEVRYKIRGKWLMYSTGNYIILPSGNLQILNVSSKDKGSYKCAAYNPVTSELKVEPAGRKLLVSRPSSDGFHILHPALSQALAVLPHSPVTLECVVSGVPASQVYWLKDGQDCLSGSNWRRLYSHLATASIDPADSGNYSCVVGNNSSGDVKHVTYTVNVLEHASISKGLHDQKVSLGATVRFTCEVHGNPAPNRTWFHNAQPIRPSSRHLTEGSVLKITGVIMEDSGLYQCMADNGIGFMQSTGRLQIEQDSGQRPVIVTAPANVEVTDGDFVTLSCNATGEPVPVIHWYGRHGLITSHPSQVLRSKSRKSHLFRPGDLDPEPVYLIMSQAGSSSLSIQAVTREHAGKYTCEAVNKHGSTQSEAFLTVVPFETNTKAEPVTPSEASQNDERDPRDGSESGLLNLFPVKVHSGGVELPAEKNASVPDAPNILSPPQTHMPDTYTLVWRTGRDGGMPINAYFVKYRKLDDGSGAVGSWHTVRVPGSESELHLTELEPSSLYEVLMVARSAVGEGQPAMLTFRTSKEKMASSKNTQASFPPVGIPKRPVTSEASNSNFGVVLTDSSRHSGVPEAPDRPTISMASETSVYVTWIPRANGGSPITAFKVEYKRMKSSDWLVAAEDIPPSKLSVEVRSLEPGSIYKFRVIVINHYGESFRSSASRPYQVAGFPNRFSNRPITGPHIAYTEAVSDTQIMLKWTYIPSSNNNTPIQGFYIYYRPTDSDNDSDYKRDVVEGSKQWHTIGHLQPETSYDIKMQCFNEGGESEFSNVMICETKVKRVPGASEYPMKELSTPPSSSGNGGNVGPATSPARSSDMLYLIVGCVLGVMVLILLVFIALCLWKSRQQSAIQKYDPPGYLYQGSEINGQMVEYTTLSGTARINGSVHGGFLSKGSLSNGCSHLHHKGPNGVNGILNGTINGGLYSAHTSSLTRTCVEFEHPHHLVNGGAVYTAVPQMDPLECINCRNCRNNNRCFTKTNSPLPVVPVVASYPQDGLEMKPLGVMKFPVCPVSTVPDGGQIPEECLKDSVAPAPTQRTCRQDNTSDINSDSTEDTAEFNRGDSSGHSEAEDKVFSWSPLILSPVLEDCSEKTAWSPPGPPLDGLSVVLQQAQET
